{"source": "patent US20240052305A1", "about": "“CHEMICAL INDUCTION METHOD FOR PHOTORECEPTOR NEURON CELLS” (IREGENE THERAPEUTICS LTD, priority 2020, published 2024)", "tested_on": "ectoderm cells", "experiment": "Differentiation of ectoderm cells into photoreceptor neuron cells with AM580 (morphology, Q-PCR, immunofluorescence)", "type": "cell-based, human", "details": "fluorescent immunoassay, FIG. 5", "description": "The ectoderm cells obtained by the NouvNeu system in Example 2 were subjected to directed differentiation in NouvNeu medium. For differentiation, a 6-well culture plate was coated by 50 ug/ml poly-lysine (SIGMA, P6407), incubated in an incubator at 37° C. for more than 3 hours until cells were seeded.\nThe photoreceptor neuron cell induction medium of the present invention was obtained by supplementing the NouvNeu-basal base medium with 55 nM-25 uM LY2157299 (with an optimal concentration of 7.5 uM) (preferably 100 nM, 300 nM, 500 nM, 700 nM, 900 nM, 1 uM, 2.5 uM, 5 uM, 7.5 uM, 10 uM, 12.5 uM, 15 uM, 17.5 uM, 20 uM or 22 uM) and 0.05-0.95 uM AM580 (Selleck) (with an optimal concentration of 0.5 uM) (preferably 0.08 uM, 0.09 uM, 0.1 uM, 0.2 uM, 0.3 uM, 0.5 uM, 0.6 uM, 0.7 uM, 0.8 uM, 0.9 uM). The cells were cultured until photoreceptor neuron cell were formed. A control experiment was performed by adding 0.5 uM retinoic acid to the NouvNeu medium, hereinafter referred to as RA. […]\nTranscription changes of different marker genes during induction from ectoderm cells to photoreceptor neuron cells were detected by Q-PCR. […] SYBR Premix Ex Taq (TaKaRa) and Thermal Cycler Dice Real Time System (TaKaRa) were used for labeling and reaction of Quantitative PCR, and beta-Actin was used as internal control. All data were analyzed by delta-Ct method. […]", "note": "For at least one compound, name, drawing or mass did not settle the structure."}
{"compound": "CC1=C(/C=C/C(C)=C/C=C/C(C)=C/C(=O)O)C(C)(C)CCC1", "note": "[RA, retinoic acid]", "values": [{"measurement": "protein expression of photoreceptor markers", "result": "express Nestin protein and Recoverin protein (5a), mature photoreceptor marker proteins CRX and Opsin protein (5b), Rhodopsin and PAX6 protein (5c)"}]}
